In all, about 2,800 compounds went through this assay and fewer than 10 were called active. Inconclusive results (about 7%) are left out. Calls come from the whole dose curve; as a rule, active = well fitted inhibition curve with a large enough effect; inconclusive = small, poorly fitted or top-dose-only effect; inactive = no such curve, though single readings can be large or run the other way. This is one part of the list.
target: Metallo-beta-lactamase type 2 (Klebsiella pneumoniae) (UniProt C7C422); assay: qHTS to identify inhibitors of the New Delhi Metallo-beta-lactamase (NDM): Nitrocefin screen against the machine-based learning selections.; note: % of control where 0% means no effect; settings: NDM-1 enzyme, nitrocefin hydrolysis, absorbance 485 nm; activity, negative = inhibition: at the top concentration
Source text: Assay Submitter (PI): James Inglese Ph.D., Patricia Dranchak Ph.D., Mahesh Aitha Ph.D. Assay Development and Screening Technology Laboratory (ADST) National Center for Advancing Translational Sciences (NCATS), Rockville, MD National Institute of Health (NIH), Bethesda, Maryland The metallo-beta-lactamases (MBL) are a main antibiotic resistance mechanism evolved by bacteria. There is an urgent clinical need for MBL inhibitors to mitigate this growing threat. To support a machine-based learning study, qHTS has been used to experimentally test inhibitors identified by prediction tools.
PROTOCOL TABLE (as described by Inglese et al., 2007) SEQUENCE No. (e.g., 1, 2, 3, etc.); […] (e.g., enzyme, Incubation, Reagent, etc.); VALUE; DESCRIPTION Primary Screen 1; NDM-1; 4 uL of 3 nM enzyme [2 nM final] in 50 mM HEPES (pH 7.0), 1 uM […], 0.01% Tween20; Use BioRaptr to dispense into two sets of Aurora black, clear bottom high base 1536-well plates 2; Compounds; 23 nL; Use Pin Tool (Wako) to transfer DMSO control and library compounds in DMSO 3; Incubate; >30 min 4a; Reagent; 2 uL of 50 uM nitrocefin [16.7 uM final] to one set of assay plates 4b; Reagent; 2 uL of 150 uM meropenem [50 uM final] to second set of assay plates 5a; Incubate; 15 min 5b; Incubate; 30 min 6a; Detector; Absorbance at 485 nm (bandwidth = 5 nm, 25 flashes/well) on Tecan Infinity 6b; Detector; Absorbance at 300 nm (bandwidth = 5 nm, 25 flashes/well) on Tecan Infinity NOTES (numbers refer to sequence above) 1; Column 1 of each plate received assay buffer without enzyme and columns 2-48 received enzyme for a final assay concentration of 2 nM. 2; Control plate contained DMSO in columns 1, 2, 3, and 4. 3; Compound interaction with enzyme. 4; Nitrocefin and meropenem substrates were prepared in the same assay buffer as step 1 for a final assay concentration of 16.7 uM and 50 uM, respectively, and added to all wells across respective sets of assay plates. 5; Default reader settings were applied for absorbance read at 485 nm (nitrocefin) or 300 nm (meropenem), bandwidth = 5 nm, 25 flashes/well. References: Inglese J, Shamu CE, Guy RK. 2007. Reporting data from high-throughput screening of small-molecule libraries. Nat Chem Biol. doi:10.1038/nchembio0807-438 Yasgar A, Shinn P, Jadhav A, Auld D, Michael S, Zheng W, Austin CP, Inglese J, Simeonov A. 2008. Compound Management for Quantitative High-Throughput Screening. J Lab Autom 13:79 - 89. doi:10.1016/j.jala.2007.12.004

The chains behind the UniProt entries cited, without tags or fusion partners. Where a name states a change or a piece, a line headed by the entry shows the natural chain unless it says otherwise.
UniProt C7C422: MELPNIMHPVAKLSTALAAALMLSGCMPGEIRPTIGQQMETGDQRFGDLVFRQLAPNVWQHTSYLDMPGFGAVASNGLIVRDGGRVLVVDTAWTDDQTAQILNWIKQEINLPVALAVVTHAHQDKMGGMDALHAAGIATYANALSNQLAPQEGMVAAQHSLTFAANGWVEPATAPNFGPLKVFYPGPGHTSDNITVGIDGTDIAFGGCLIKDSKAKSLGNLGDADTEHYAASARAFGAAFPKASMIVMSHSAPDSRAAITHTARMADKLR

activity, negative = inhibition, inactive:
O=C(Nc1cccs1)O[C@H]1COCCN(c2nc3ccccc3o2)C1 -1.23% [at 57.5 µM], CC[C@H]1CN(C(=O)C(C)(C)C)CC[C@H]1CC(=O)NCc1cccnc1 4.25% [at 57.5 µM], Fc1ccc(CN2CC[C@H](c3nc4cc(Cl)ccc4o3)C2)cc1F 2.43% [at 57.5 µM], CCN(Cc1nc(C)no1)C(=O)c1cc(COc2ccccc2F)[nH]n1 -1.16%, Cc1noc(C)c1CCC(=O)N1CCN(Cc2ccccc2)CC(O)C1 (stereo not given) -4.75%, CCC(=O)N(C1CCOCC1)C1CCN(S(=O)(=O)c2ccc(C)cc2C)CC1 5.91%, CC(C)c1noc(CN(C)C(=O)CC2C(=O)NCCN2Cc2ccoc2)n1 (stereo not given) 1.66%, CN1CCN(c2ccc(C(=O)N[C@H](c3ccccn3)C3CC(O)C3)cc2)CC1 (stereo not given in full) -4%, Cc1nn(CCC#N)c(C)c1[C@@H]1C=C[C@@H](NC(=O)Nc2ccc(Cl)cc2)C1 -9.39% [at 57.5 µM], CCCNC(=O)NC[C@H]1O[C@@H]2C[C@@H](CC(=O)N3CCC(F)(F)C3)O[C@@H]2[C@@H]1O 3.53% [at 57.5 µM], CCO[C@H]1CN(C(=O)c2cccnc2SCCc2ccccc2)C[C@@H]1O 72.9%, COCCNS(=O)(=O)c1cc(C(=O)O)cc(-c2ccc(OC)c(F)c2)c1 -0.8%, CN(Cc1ccccc1)Cc1cc(CC2(NCc3cccs3)COC2)no1 -7.06% [at 57.5 µM], CC1CCC(NC(=O)C2CCN(C(=O)c3ncn4c3COC(c3ccc(Cl)cc3)C4)CC2)CC1 (stereo not given) -2.86%, COCCN1CCCC2(CCN(C(=O)c3ccccc3)C2)C1 (stereo not given) -3.5%, COc1ccc(Cl)cc1-c1ccc2c(c1)C(=O)N1CCN(C(=O)c3ccc(N(C)C)cc3)C[C@@H]1C(=O)N2 -0.119%, COc1ccc(C(=O)N2CCC(c3nn(-c4ccccc4)c(=O)[nH]3)CC2)cc1 3.64%, COCCNC(=O)c1ccc(OC2CCN(S(C)(=O)=O)CC2)c(Cl)c1 2.62%, CCn1ccc(C(=O)N2CC(c3nnc(-c4ccc(C)cc4)o3)C3(CCOCC3)C2)n1 (stereo not given) 5.1%, Cc1nnnn1CC(=O)NCc1cccnc1N(C)CCc1ccccn1 -1.64%, COc1cccc(Nc2cc3c(cn2)CN(Cc2ccncc2)CCN3)c1 5% [at 57.5 µM], CC(C)C(=O)Nc1ccc([C@H]2OCC(=O)N(Cc3ccccc3)[C@@H]2CO)cc1 -3.52% [at 57.5 µM], OC(c1cccc(C(F)(F)F)c1)c1nc(Nc2ccncc2)n[nH]1 (stereo not given) 4.24% [at 57.5 µM], O=C(Cc1c[nH]c2ncc(-c3cccnc3)cc12)NCCc1ccccc1 -26.8% [at 57.5 µM], CC1(C(=O)NCCc2ccccn2)CCc2cnc(NCc3ccccc3)nc21 (stereo not given) -0.0818% [at 57.5 µM], CC(C)(O)CCc1ccc(C(=O)NCCSc2ccccn2)cc1 0.0009%, O=C(Cc1ccccc1Cl)N1CCC(Cc2nc(-c3ccc(F)cc3)no2)CC1 0.542%, CCNc1ncc(C(=O)NC2CC(c3nnc(CO)n3CC)C2)cn1 (stereo not given) -0.945%, OC[C@]12CCCN[C@@H]1CCN(Cc1cccc(-c3ccccn3)c1)C2 -8.88%, CN1[C@@H](CCC(=O)N2CCN(c3ccccc3)CC2)CNC(=O)[C@@H]2[C@H]1CCN2Cc1cccc(Cl)c1 -0.988%, C[C@@H](NC(=O)Cc1ccccc1)c1onc(-c2ccc(Cl)cc2)c1C(=O)O -9.11% [at 57.5 µM], NC(=O)c1cccc(-c2n[nH]c3c2CC(=O)N(CC2CCOCC2)C3)c1 -9.85% [at 57.5 µM], COc1ccccc1-c1cnc(Nc2cccc(N[S+](C)(=O)[O-])c2)c2c1CCO2 -2.84% [at 57.5 µM], COc1ccc(C(=O)N2CC[C@@H](CC(=O)O)[C@@H](CCN3C[C@@H]4C[C@H](C3)c3cccc(=O)n3C4)C2)cc1 -12.6%, COc1ccc(NC(=O)O[C@@H]2CC[C@]3(C)C(CC[C@@H](O)[C@H]3CC(=O)NCc3ccc4c(c3)OCO4)[C@]2(C)CO)cc1 (stereo not given in full) -2.57%, C=CCN1CC2(CCC1=O)CCN(CC1CCCS(=O)(=O)C1)CC2 (stereo not given) -5.44%, O=c1cc(-c2ccccn2)oc2c(NCc3ccccc3)nccc12 5.89% [at 57.5 µM], C[C@H]1[C@@H]2[C@@H](O)[C@H]([C@H](C)C(=O)N3CCCC3)CC[C@@]2(C)CC[C@@H]1NC(=O)CC(C)(C)C -4.1% [at 57.5 µM], OCC1(Cc2ccc(F)cc2F)CCCN(c2cnc3ccccc3n2)C1 (stereo not given) -5.51%, CC(C)c1nnc(C2CN(C(=O)c3ccc(F)c(F)c3)CC23CCOCC3)o1 (stereo not given) -3%, CN[C@@H](CC(C)C)C(=O)N[C@H]1C[C@@](O)(C(=O)N[C@H](Cc2c[nH]c3ccccc23)C(N)=O)C[C@@H](O)[C@@H]1O -4.28%, CC1(CNC(=O)c2ccc3c(c2)OCO3)CCOCC1 1.78%, O=C(OCc1ccccc1)N1CCC2(C1)C(=NC1CCCC1)NC(=O)N2c1cccnc1 (stereo not given) 6.13%, Cc1ccccc1C(=O)N1CCCN(c2cc(-c3ccc(Cl)cc3)[nH]n2)CC1 0.61%, O=C(NCCc1ccccc1)C1CC(=O)N(c2n[nH]c3cccc(F)c23)C1 (stereo not given) 0.403%, COCCNC(=O)C[C@@H]1C[C@H]2O[C@H](CNC3CCCCC3)[C@@H](O)[C@H]2O1 0.534% [at 57.5 µM], Cc1ccsc1-c1[nH]nc2ncc(-c3ccc(CO)cc3)nc12 -2.91% [at 57.5 µM], N#Cc1cccc(CN2CCC[C@H]2c2nc(-c3ccc(OC4CCCCC4)nc3)no2)c1 -4.25% [at 57.5 µM], O[C@@H]1C[C@@H](c2nnc3n2CCN(Cc2ccccc2)C3)N(Cc2ccccc2)C1 -2.71%, Cc1ccc(-c2cc(O)c3c(c2)CNCCO3)cc1 -2.39%, COc1ccc(C(=O)N[C@H]2CO[C@H]3[C@@H]2OC[C@@H]3n2nnnc2-c2cccc(OC)c2)cc1 -3.19%, O=C(Cc1noc2ccccc12)N[C@@H]1COCC[C@@H]1OCc1ccccn1 -3.82%, C=CCn1cc2c3c(cccc31)[C@H](CC(C)C)N[C@H](C(=O)N1CCOCC1)C2 7.68% [at 57.5 µM], Cc1nn(Cc2ccccc2)c(C)c1[C@@H]1C=C[C@@H](NC(=O)NC2CCCCC2)C1 -11.6% [at 57.5 µM], CCCN1CC2(CCN(C(=O)c3ccc(C)nc3)CC2)CC1C(=O)O (stereo not given) -5.46%, COCC(=O)N1CCCc2nc(C)nc(-c3ccc(O)cc3)c2C1 1.22% [at 57.5 µM], C[S+](=O)([O-])CCn1ncc2cc(OCc3cccc(-c4cccc(O)c4)c3)ccc21 -9.78% [at 57.5 µM], COC(=O)[C@H](CC1CCCCC1)NC(=O)[C@H]1CN(C(=O)c2cccc(F)c2)CCN1C(C)=O -8.77%, CC(C)CC(=O)N1CCN(c2nnc3ccccn23)CC1 9.22%, COc1cccc(Nc2n[nH]c(C(O)c3cccc(C(F)(F)F)c3)n2)c1 (stereo not given) -5.53% [at 57.5 µM], O=C(Cc1ccccn1)N1CCC(N2CC3CCCN3C2=O)CC1 (stereo not given) -0.101% [at 57.5 µM], Cc1cc(C)c(CNC(=O)c2nc(-c3cccnc3)cc3[nH]ccc23)c(=O)[nH]1 -12.9% [at 57.5 µM], CC(C)c1noc(-c2cccn3c(CNC(=O)c4cccc5[nH]ccc45)nnc23)n1 0.533%, OC1(CN2CCCCC2)CCN(c2nc3ccccc3s2)C1 (stereo not given) 3.39%, O=C1NCCC[C@@H]1NC(=O)[C@H]1CN(C(=O)c2cccc(F)c2)CCN1C(=O)c1cccs1 -4.39%, O=C(O)c1cc(Br)cc(S(=O)(=O)NCC2CCCO2)c1 (stereo not given) -4.23%, O=C1N[C@@H]2CCN(C(=O)c3ccc(-c4ccccc4)cc3)[C@@H]2C(=O)N1c1ccc(F)cc1 -7.85% [at 57.5 µM], CC(C)CCN1CCc2[nH]nc(C(=O)N(C)C)c2C1 -5.92%, O=c1c2nc(-c3ccc(O)c(F)c3)ccc2ncn1Cc1ccccn1 2.13% [at 57.5 µM], CCc1nc(NCCc2cc(OC)cc(OC)c2)c2cnn(C)c2n1 -3.8%, O=C(C[C@@H]1O[C@H](CNC(=O)c2ccccc2)[C@@H](O)[C@H]1O)NC1CC1 -6.38% [at 57.5 µM], OCc1cccc(-c2ccc3ncc(Nc4ccccc4F)n3n2)c1 -7.54% [at 57.5 µM], COc1ccc(-c2noc([C@@H]3C[C@@H](O)CN3Cc3ncc[nH]3)n2)cc1 1.33% [at 57.5 µM], Cc1nc(C(=O)N2CCC(c3nnc(CN4CCCC4)n3C)CC2)cs1 -8.34%, c1cncc(Nc2cc3c(cn2)CN(Cc2ccc4[nH]ccc4c2)CCN3)c1 6.75% [at 57.5 µM], F[C@@H]1CN(Cc2cccnc2)C[C@@H]1OCc1nc2ccc(C(F)(F)F)cc2[nH]1 -5.95% [at 57.5 µM], COc1ccc(CNC(=O)C[C@@H]2CCNC[C@@H]2Cc2cc(COc3ccccc3)on2)cc1 8.54%, O=C(c1ccccc1-c1ncn[nH]1)N1CCn2nc(Cc3ccccc3)cc2C1 3.73%, COc1ccccc1CNC(=O)C[C@@H]1[C@H](O)CCC2[C@](C)(CO)[C@H](OC(=O)NC(C)C)CC[C@]21C (stereo not given in full) -1.64%, C[C@@H]1CN(C(=O)CCN(C)S(C)(=O)=O)C[C@@]1(O)C1CC1 1.3%, COc1ccc(NC(=O)C2(C)CCCc3cnc(Nc4cccnc4)nc32)cc1 (stereo not given) 5.21% [at 57.5 µM], O=C(Nc1ncc(-c2ccccc2)c2c1OCC2)c1cn[nH]c1 -1.33% [at 57.5 µM], NCCC[C@@H](N)C(=O)N1CCCC(c2ccccc2)(c2ccccc2)C1 21.8%, CC1(C)[C@H](Cc2cc(CCO)on2)C[C@@H]1N(S(C)(=O)=O)S(C)(=O)=O -0.982% [at 57.5 µM], CCOC(=O)CCNC(=O)N1CCC(Oc2ncccc2C(=O)N2CCCCC2)C1 (stereo not given) 2.5%, Fc1ccc(CNc2cc3c(cn2)NCCN(Cc2ccccc2)C3)cc1 0.152% [at 57.5 µM], COc1ccc2nc3n(c2c1)[C@@H](CNC(=O)c1ccc(F)cc1)COC3 1.28% [at 57.5 µM], COCCNC(=O)c1ccc2c(c1)N(C)C(CC(=O)N1CCCCC1)CO2 (stereo not given) -0.115%, COc1ccc([C@H]2C[C@@H](O)[C@@H](O)[C@@H]2NCc2ccc(OC)nc2)cc1 -2% [at 57.5 µM], Oc1cccc(CN(Cc2ccsc2)Cc2ccco2)c1 -0.858%, COC(=O)c1cc2n(n1)CCCN(C(=O)c1cc(CC(C)C)no1)C2 -1.33%, O=C(NCc1c[nH]c2ncccc12)c1ccccn1 2.45% [at 57.5 µM], Cc1nn(-c2ccccc2Cl)c(=O)n1CC(=O)N(C)C(C)c1ccon1 (stereo not given) 0.444%, NS(=O)(=O)c1ccc(CNc2nccc(-c3cccnc3)n2)cc1 -0.0944%, Cc1cc(C(=O)N2CC[C@H](NS(=O)(=O)c3cccs3)C[C@H]2C(=O)N[C@H](C)C(N)=O)n(C)n1 -6.71%

Reference: PubChem BioAssay AID1794844 (National Center for Advancing Translational Sciences (NCATS), 2023)
